Assay results reported in PubChem BioAssay AID1347426 (Functional Genomics Laboratory (NCATS/FGL), 2020).
Hit rate of the full screen: of about 31,000 sequences, about 1,400 (4.5%) were called active.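 How the source made its calls: active means median seed-adjusted z-score above 1 or below -1; inactive means the rest.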 The list shows a part of the results.

assay: Novel Modifiers of Survival Motor Neuron (SMN) Protein: Gene Identification via Genome-wide siRNA Screen; conditions: HEK293T SMN2-luciferase reporter, siRNA knockdown, 72 h; actives lie on both sides;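 further: luminescence tracks full-length SMN protein made from the SMN2 reporter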
Outline: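 HEK293T cells stably expressing an SMN2 splicing/cDNA-luciferase reporter were reverse-transfected with a druggable-genome siRNA library and read by luminescence at 72 hours; hits defined by MAD score above 1.0 or below -1.0.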

| Sequence | median seed-adjusted z-score |
| --- | --- |
| UGGACAUUCUUGCACCCAATT against CHTF18 | inactive: 0.371 |
| GGACUAUAAAUCCAGCUUUTT against TOMM34 | inactive: -0.503 |
| CGCAGUGUGAAAUACCUAATT against BBS10 | inactive: 0.298 |
| CCCUGAAACUCGUCCUGUUTT against ZNHIT3 | inactive: -0.311 |
| AAUUAUAGAUGGGAAUGAATT against HNRNPA1 | inactive: 0.563 |
| CGUUGUCCAUGGUGAGGAUTT against ELA3A | inactive: -0.0465 |
| GCAUGUCCGAGACACCAAATT against IL13 | inactive: 0.435 |
| CAGUUGCAACUCUUCGUGATT against ALB | inactive: -0.153 |
| GGAGCUUCUUGGGACCUGUTT against CD97 | inactive: 0.202 |
| GGUUCUCUUGCAUUACUUUTT against GLP2R | inactive: 0.492 |
| GGUUGAUAUUUGUGGUCGATT against ARF3 | inactive: 0.18 |
| CCCUAGCUGUAAUCACUAATT against DNM1L | inactive: -0.153 |
| CCACACCUACAAUACCUAUTT against FKBP10 | inactive: 0.229 |
| CAUUAUCGAUACUAUGUAATT against PSMD6 | active: -1.03 |
| GGCCUAACCAUAUGCCUAUTT against SS18 | inactive: 0.34 |
| GCAGGCCUCCAGCUACUAUTT against SOX8 | inactive: 0.186 |
| GUUGAGCCCUUGUAUAUUATT against UBE2C | inactive: 0 |
| CAUUAAAGCAGCUACCAAUTT against PSMC3IP | inactive: -0.0482 |
| GAAUGUUCUGAAUCGCGAATT against NLRC4 | inactive: -0.00107 |
| CCUUAGUUCUUCCUCGGAATT against PARP12 | inactive: -0.287 |
| CUUCAGAAUGUAUACAGAATT against ACYP2 | inactive: 0.286 |
| GGGAGAACCUUGCUAGUGATT against LARP5 | inactive: -0.144 |
| CGUGAUAUCCAGUUUGAUATT against ALOX5 | inactive: -0.201 |

| Sequence | median seed-adjusted z-score |
| --- | --- |
| GCAUCGUCAUUCCUAAUGATT against ITGB6 | inactive: -0.5 |
| GCCUUGCAAUUUCCGUAUATT against AOF1 | inactive: -0.211 |
| GGAAUUCCUUGGAUCACCATT against GLYAT | inactive: 0.68 |
| GAAUCUACCGGGAAACAGATT against CHRM5 | inactive: -0.553 |
| GGAAAGGCGGGAACAAUAATT against PIK3R2 | inactive: 0.421 |
| GCAUUUUGGAGGACCAGGATT against PGLS | inactive: 0.188 |
| CAAACUUAAAGGUCAGAAATT against WHSC1 | active: 1.17 |
| AGAUCUAAGCGGUGCGGUATT against CALCA | inactive: 0.0802 |
| GGAUCUUAGCCUCAGAAUUTT against STK36 | inactive: -0.0489 |
| CAUCCAUGUGGGAAACAUUTT against SMARCB1 | inactive: 0.05 |
| CAUCCGAGAUGUUUCCAAATT against BPHL | inactive: -0.161 |
| GCAAUUUCAUGGAGGACGATT against SPOCK2 | inactive: 0.967 |
| GACUAUCGCUAAUGAGUAUTT against HSPA4 | inactive: 0.143 |
| ACUUCCUGUUGGUCUACAATT against FXC1 | inactive: -0.00735 |
| GGCUCCUAGAUGAUCGAAATT against MACF1 | inactive: -0.146 |
| GGCUGAUAUUAACUGUCAATT against KLF1 | inactive: 0 |
| CGGACUAACUUAUAUCGCATT against MAN1A1 | inactive: 0 |
| GGUCUGCGAAUUUCAUAUATT against GCA | inactive: -0.162 |
| GGAUGUACGUUGUUACCAATT against PTPN22 | inactive: -0.0843 |
| GGAUUCAGGCUGCAAAGUATT against KHSRP | inactive: -0.856 |
| CAAAUACGGUAAUGCUGUATT against COX7B | active: -1.16 |
| GAGCUUCGGUGACAGCAAATT against DNASE1L2 | inactive: -0.228 |
| GAUAAACAAGAUUCCCUUATT against SYT2 | inactive: 0.243 |

Individual results from the entries so far.
Under median seed-adjusted z-score, CCUUAGUUCUUCCUCGGAATT against PARP12 is entered as inactive: -0.287
Under median seed-adjusted z-score, GGUUGAUAUUUGUGGUCGATT against ARF3 is entered as inactive: 0.18

Next records.

| Sequence | median seed-adjusted z-score |
| --- | --- |
| GGAGAAAGGAUCACGCUAATT against KCTD1 | inactive: 0 |
| GGCUUAUGAGAUCACGUAUTT against LAMC3 | inactive: 0.394 |
| CCUGGAAACUACAAGCCCATT against SIRT3 | inactive: -0.341 |
| GGAUCAUUGAUGGACGUGATT against STS | inactive: -0.392 |
| GCAUCAUCACAGAGAGGUUTT against ST8SIA5 | inactive: -0.358 |
| AGAAUGCACCAAACAAACATT against DOLPP1 | inactive: 0.00977 |
| UCACAUUAGGGAUACAAAATT against UQCR | inactive: 0.193 |
| AGAAUAAAAUGGUCUGUGATT against CRABP2 | inactive: 0.0092 |
| GGCAAAGGGUAGAAGAGCATT against ANXA2 | inactive: 0.499 |
| GUACAAGGUUUACAAGUAATT against RBBP8 | inactive: 0.323 |
| GAAUAUGCAUUGCUAACCATT against SV2C | inactive: 0.183 |
| CACUCGUCUGUGCAAAAUATT against ZC3HC1 | inactive: -0.859 |
| CUCCAACAGUUAAUCGGGATT against USP8 | inactive: 0.743 |
| ACAGAGAUCCGUCCACAAATT against NR1H3 | inactive: 0.426 |
| GGCUAAUUCUAGAUGACAATT against RXFP2 | inactive: 0.511 |
| GGAGUUGUUCAAGUAGAAATT against GNL2 | inactive: 0.739 |
| GGAAAAUUGACAAUGUUGATT against ENTPD6 | inactive: 0.438 |
| GCUUUGUGCUCAUUACCUUTT against SMO | inactive: -0.457 |
| GUAGGACAGUAGAAACUGATT against ZNF81 | inactive: 0.178 |
| GUAUCGCAUUUCUACAGCATT against SAMHD1 | active: -1.33 |
| GACUAAAUCAGUUACCGAATT against MED17 | active: -2.06 |
| AAAGGACUCAGCUUCCUUATT against TYSND1 | inactive: -0.0298 |
| GAGCCGAGGAAAUAGCUUATT against MTCH2 | inactive: -0.168 |

At a glance, part of the list above.

| Sequence | median seed-adjusted z-score |
| --- | --- |
| CUCCAACAGUUAAUCGGGATT against USP8 | inactive: 0.743 |
| ACAGAGAUCCGUCCACAAATT against NR1H3 | inactive: 0.426 |
| GGCUAAUUCUAGAUGACAATT against RXFP2 | inactive: 0.511 |
| GGAGUUGUUCAAGUAGAAATT against GNL2 | inactive: 0.739 |
